This note sets out measurements from PMC5103180.

Protein sequences, listed by entry. Tags and fused reporters are not part of them.
UniProt P16157: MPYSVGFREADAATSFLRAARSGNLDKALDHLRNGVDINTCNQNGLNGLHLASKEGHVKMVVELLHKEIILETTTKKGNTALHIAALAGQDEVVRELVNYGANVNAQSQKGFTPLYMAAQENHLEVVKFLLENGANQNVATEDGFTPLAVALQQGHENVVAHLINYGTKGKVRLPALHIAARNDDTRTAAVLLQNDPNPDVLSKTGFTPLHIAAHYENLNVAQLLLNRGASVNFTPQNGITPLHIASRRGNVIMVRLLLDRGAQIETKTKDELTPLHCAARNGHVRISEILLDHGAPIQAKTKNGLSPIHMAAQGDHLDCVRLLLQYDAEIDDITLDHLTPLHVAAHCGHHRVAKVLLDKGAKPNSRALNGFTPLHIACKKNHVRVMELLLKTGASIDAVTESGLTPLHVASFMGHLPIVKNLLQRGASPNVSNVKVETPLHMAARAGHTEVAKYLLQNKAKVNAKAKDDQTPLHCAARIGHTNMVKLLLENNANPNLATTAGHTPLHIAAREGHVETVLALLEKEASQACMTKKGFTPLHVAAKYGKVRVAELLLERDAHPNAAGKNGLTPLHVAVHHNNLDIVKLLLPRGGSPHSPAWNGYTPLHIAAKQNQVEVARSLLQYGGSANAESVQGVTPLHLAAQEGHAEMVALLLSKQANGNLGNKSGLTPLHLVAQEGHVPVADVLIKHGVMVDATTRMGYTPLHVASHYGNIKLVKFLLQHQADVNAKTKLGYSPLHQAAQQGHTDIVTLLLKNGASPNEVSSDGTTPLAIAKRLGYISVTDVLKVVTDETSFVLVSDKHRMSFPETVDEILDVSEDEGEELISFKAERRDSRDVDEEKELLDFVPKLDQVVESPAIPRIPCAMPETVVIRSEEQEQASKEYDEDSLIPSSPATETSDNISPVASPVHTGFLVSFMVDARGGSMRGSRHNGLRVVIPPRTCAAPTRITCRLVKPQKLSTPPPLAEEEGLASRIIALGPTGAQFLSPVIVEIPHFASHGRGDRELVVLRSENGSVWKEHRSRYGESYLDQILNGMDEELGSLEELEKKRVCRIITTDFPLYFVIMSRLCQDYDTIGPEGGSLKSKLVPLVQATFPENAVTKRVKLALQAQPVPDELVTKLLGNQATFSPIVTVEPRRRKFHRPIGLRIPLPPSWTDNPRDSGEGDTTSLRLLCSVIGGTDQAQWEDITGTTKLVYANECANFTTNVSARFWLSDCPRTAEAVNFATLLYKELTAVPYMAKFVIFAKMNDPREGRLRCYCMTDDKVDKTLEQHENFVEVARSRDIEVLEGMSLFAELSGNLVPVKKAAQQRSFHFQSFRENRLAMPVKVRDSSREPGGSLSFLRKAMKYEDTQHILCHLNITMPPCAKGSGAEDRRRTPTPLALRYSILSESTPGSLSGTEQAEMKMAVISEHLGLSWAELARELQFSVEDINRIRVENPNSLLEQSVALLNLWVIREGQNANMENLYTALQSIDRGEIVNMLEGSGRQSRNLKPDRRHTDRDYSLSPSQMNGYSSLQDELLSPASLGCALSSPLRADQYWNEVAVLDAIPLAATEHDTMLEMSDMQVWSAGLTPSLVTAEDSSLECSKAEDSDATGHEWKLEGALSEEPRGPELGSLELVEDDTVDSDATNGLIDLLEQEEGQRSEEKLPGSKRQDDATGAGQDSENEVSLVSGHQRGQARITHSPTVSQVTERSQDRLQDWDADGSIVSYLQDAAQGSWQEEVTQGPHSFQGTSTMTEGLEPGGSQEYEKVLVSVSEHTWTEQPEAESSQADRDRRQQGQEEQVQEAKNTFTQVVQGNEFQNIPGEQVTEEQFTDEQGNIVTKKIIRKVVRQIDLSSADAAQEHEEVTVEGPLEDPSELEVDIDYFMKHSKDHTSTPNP
UniProt P02730: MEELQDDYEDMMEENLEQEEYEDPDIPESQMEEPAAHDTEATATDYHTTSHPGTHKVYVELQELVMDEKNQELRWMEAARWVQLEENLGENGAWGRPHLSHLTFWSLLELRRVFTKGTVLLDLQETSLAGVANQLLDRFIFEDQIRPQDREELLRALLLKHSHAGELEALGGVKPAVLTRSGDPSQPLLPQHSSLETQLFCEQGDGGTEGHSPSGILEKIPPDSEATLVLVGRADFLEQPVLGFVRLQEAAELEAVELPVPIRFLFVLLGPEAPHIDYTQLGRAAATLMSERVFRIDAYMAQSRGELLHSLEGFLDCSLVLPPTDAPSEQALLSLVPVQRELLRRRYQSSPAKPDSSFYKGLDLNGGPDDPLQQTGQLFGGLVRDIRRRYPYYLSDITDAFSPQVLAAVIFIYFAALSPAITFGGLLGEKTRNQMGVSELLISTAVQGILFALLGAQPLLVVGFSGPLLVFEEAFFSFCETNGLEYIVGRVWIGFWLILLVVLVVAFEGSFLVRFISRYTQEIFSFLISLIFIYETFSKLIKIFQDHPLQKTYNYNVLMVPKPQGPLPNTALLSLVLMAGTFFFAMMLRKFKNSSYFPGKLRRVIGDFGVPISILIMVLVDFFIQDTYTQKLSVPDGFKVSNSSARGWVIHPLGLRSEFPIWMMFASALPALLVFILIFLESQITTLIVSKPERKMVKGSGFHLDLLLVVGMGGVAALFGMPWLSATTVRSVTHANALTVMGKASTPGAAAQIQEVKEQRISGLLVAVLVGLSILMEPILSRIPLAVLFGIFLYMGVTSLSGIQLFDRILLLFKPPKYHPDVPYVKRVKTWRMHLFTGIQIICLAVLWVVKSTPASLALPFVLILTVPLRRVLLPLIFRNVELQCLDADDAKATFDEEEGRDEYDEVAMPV
UniProt P11277: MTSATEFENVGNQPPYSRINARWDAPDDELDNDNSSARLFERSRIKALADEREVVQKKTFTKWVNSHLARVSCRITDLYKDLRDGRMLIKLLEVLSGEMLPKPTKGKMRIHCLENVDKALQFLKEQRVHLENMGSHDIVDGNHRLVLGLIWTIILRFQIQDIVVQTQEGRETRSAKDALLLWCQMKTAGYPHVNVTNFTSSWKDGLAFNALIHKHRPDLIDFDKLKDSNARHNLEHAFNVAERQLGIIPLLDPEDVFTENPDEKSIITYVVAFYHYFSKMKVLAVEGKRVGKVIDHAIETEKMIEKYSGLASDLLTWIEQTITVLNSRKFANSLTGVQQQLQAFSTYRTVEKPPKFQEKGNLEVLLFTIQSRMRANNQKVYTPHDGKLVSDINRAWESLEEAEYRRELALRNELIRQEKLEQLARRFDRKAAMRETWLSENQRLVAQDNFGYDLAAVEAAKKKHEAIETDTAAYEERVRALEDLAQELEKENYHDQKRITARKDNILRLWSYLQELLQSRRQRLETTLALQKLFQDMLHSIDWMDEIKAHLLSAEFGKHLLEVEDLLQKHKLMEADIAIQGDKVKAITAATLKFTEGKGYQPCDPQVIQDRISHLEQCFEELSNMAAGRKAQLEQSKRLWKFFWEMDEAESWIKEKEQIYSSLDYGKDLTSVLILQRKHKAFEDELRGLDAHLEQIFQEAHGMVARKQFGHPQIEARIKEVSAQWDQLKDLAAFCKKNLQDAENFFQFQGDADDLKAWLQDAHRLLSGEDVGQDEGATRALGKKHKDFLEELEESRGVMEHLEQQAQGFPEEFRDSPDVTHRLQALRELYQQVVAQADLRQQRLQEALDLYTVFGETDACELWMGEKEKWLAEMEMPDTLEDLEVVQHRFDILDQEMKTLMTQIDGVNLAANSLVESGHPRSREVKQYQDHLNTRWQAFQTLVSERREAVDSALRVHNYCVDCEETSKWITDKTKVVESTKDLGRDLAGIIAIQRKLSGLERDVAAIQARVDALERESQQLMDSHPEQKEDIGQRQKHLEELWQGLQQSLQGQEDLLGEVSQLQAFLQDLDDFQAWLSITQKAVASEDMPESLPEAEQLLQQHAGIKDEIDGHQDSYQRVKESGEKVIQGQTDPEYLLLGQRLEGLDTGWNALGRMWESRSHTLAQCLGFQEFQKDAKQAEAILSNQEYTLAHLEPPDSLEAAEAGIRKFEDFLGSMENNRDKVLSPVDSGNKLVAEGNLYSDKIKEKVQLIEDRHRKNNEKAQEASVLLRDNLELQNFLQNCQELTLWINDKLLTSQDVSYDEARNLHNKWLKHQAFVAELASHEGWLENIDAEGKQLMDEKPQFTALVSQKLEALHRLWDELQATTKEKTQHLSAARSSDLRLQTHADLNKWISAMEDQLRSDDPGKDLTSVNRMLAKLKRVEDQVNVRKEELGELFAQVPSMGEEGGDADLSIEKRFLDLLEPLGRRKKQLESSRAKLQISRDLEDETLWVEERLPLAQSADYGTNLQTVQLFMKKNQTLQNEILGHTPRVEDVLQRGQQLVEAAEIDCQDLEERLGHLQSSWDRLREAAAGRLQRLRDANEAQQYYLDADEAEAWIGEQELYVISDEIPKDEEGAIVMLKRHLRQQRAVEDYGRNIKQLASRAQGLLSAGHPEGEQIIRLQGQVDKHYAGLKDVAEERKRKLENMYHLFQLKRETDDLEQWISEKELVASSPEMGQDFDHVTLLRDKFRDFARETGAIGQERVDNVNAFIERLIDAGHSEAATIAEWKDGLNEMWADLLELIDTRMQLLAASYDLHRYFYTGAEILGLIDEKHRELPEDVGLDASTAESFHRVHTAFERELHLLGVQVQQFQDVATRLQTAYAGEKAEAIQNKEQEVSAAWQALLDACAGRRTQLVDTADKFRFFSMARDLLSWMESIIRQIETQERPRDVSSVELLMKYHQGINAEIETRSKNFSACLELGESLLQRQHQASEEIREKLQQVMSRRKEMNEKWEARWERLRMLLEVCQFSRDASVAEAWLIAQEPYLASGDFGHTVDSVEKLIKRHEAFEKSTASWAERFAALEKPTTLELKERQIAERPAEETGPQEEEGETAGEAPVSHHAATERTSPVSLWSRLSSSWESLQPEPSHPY

In the assay the target is T1, human band 4.2 (human) (UniProt P16452).
T1 sequence: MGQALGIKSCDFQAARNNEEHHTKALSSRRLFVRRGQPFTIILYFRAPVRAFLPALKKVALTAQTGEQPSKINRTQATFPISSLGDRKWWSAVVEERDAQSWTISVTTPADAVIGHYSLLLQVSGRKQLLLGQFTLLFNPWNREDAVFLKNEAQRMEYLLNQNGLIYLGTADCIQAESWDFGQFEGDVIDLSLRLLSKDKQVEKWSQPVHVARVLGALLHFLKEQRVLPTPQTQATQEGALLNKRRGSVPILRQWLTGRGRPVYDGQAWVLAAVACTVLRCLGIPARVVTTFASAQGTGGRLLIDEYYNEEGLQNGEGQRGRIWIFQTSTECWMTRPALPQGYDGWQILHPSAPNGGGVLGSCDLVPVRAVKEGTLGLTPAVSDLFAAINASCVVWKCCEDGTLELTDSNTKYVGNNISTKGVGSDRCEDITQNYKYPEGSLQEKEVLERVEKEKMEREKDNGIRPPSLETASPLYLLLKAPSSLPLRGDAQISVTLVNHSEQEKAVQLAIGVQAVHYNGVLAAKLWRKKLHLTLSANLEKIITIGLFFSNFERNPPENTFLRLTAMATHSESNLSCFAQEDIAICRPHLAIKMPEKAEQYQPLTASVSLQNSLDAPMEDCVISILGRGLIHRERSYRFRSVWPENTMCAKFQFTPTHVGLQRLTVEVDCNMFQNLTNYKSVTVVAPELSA
Kind of assay: affinity purification with mass spectrometry; reverse Co-IP from 3D7 wild-type parasite lysate, cross-linked in 1% formaldehyde; α-band 4.2 antibodies cross-linked with BS3 to Dynabeads Protein G; LC-MS/MS of the eluate, performed twice.

No constants are given. Whether binding was seen depends on the method and setting. Binding seen in cells or lysates may run through a third protein. These calls come from enrichment with a bait or labelling near it, and not all partners need be listed.

With PFE1605w (endogenous, untagged), the binding entry was “binds”.

In the case of ankyrin (from UniProt P16157 1-1881), the binding entry was “binds”.

Consider “human band 3 (endogenous) (from UniProt P02730 1-911)”, for which the binding entry is “binds”.

Regarding “α‐chain of spectrin (from UniProt P02549 1-2419)”, the binding result is listed as “binds”.

As for “β‐chain of spectrin (from UniProt P11277 1-2137)”, the binding result was “binds”.
